# In patent US20150174059A1, “ORAL CARE” (University of Pretoria, priority 2012, published 2015):
# Some results were stated once for a whole list of compounds, not compound by compound.
# Test system: Actinomyces israelii (ATCC 10049)
# Assay: Microdilution MIC/MBC against Actinomyces israelii
# Assay type: cell-based
# Settings: listed as 2
# Method: The microorganisms used in this study included Actinomyces israelii (ATCC 10049), Prevotella intermedia (ATCC 25611), Streptococcus mutans (ATCC 25175), Candia albicans (ATCC 10231) and a strain of Candida albicans resistant to polyenes and azoles (1051604). The bacteria were grown on Casein-peptone Soymeal-peptone Agar medium (CASO) (Merck Chemicals (Pty) Ltd Wadeville, South Africa) under anaerobic conditions in an anaerobic jar with Anaerocult® A (Merck KGaA Darmstadt, Germany), at 37° C. for 72 hours. Actinomyces israelii and S. mutans had CASO agar enriched with 1% sucrose (Merck Chemicals (Pty) Ltd Wadeville, South Africa). The drug susceptible and drug resistant strains of C. albicans were grown on Sabouraud Dextrose 4% Agar (SDA) (Merck Chemicals (Pty) Ltd Wadeville, South Africa), at 37° C. for 72 hours. Sub-culturing was done every second week. Inocula were prepared by suspending bacterial test organisms in their respective broths until turbidity was compatible with McFarland Standard 1 (Merck Chemicals (Pty) Ltd Wadeville, South Africa). Yeast test organisms were suspended in sterile distilled water until turbidity was compatible with McFarland Standard 1 (McFarland, 1907).
# The microdilution technique using 96-well micro-plates, as described by Eloff (1998) was used to obtain the MIC and MBC values of the crude extracts against the microorganisms under study. […]
substance,measurement,value
Cardamomin [Cardamomin (2)],MIC of the isolated compounds,> 1 mg/mL
